Results deposited as PubChem BioAssay AID743121 (NCATS, 2013)
Here is one part, drawn at random, of about 26,000 deposited reagents. In the full data, 167 (0.63%) got an active call. 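Calls are per gene from RSA p-values that are not deposited; an individual active-marked siRNA can sensitise only weakly.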 Entries without a mark were called inactive. Reagents against one gene are numbered here. Further read-outs or replicates are left out here.

Test: 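Partners whose loss is lethal together with topoisomerase I blockade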 (primary screen)
Cells: MDA-MB-231 cells, a human breast cancer line
Reagents: single siRNA against human genes, 20 nM siRNA (0.8 pmol per well)
Timing: 120 h (drug added 48 h after transfection, read 72 h later)
Conditions: camptothecin 20 nM (about EC30) for 72 h; vehicle 0.1% DMSO in parallel plates
Read-out: 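CellTiter-Glo ATP signal, scaled to control siRNA as percent viability; sensitisation given as log2 of untreated divided by camptothecin-treated viability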
Reading the numbers: log2 vehicle/camptothecin viability: higher = stronger sensitisation to camptothecin; viability with camptothecin: higher = more viable cells
Units: viability with camptothecin in % of control
Active means: 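Each gene scored by redundant siRNA activity (RSA) over its individual siRNA ratios; a gene is called active at p < 0.001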

CA13 #1 → log2 vehicle/camptothecin viability: -0.118; viability with camptothecin: 82.2
CA13 #2 → log2 vehicle/camptothecin viability: 0.174; viability with camptothecin: 65.3
CA13 #3 → log2 vehicle/camptothecin viability: -0.283; viability with camptothecin: 115
CA13 #4 → log2 vehicle/camptothecin viability: -0.0634; viability with camptothecin: 111
F11 #1 → log2 vehicle/camptothecin viability: -0.13; viability with camptothecin: 69.9
F11 #2 → log2 vehicle/camptothecin viability: -0.128; viability with camptothecin: 94.3
F11 #3 → log2 vehicle/camptothecin viability: -0.19; viability with camptothecin: 98.8
F11 #4 → log2 vehicle/camptothecin viability: -0.0547; viability with camptothecin: 93
MS4A2 #1 → log2 vehicle/camptothecin viability: -0.141; viability with camptothecin: 65
MS4A2 #2 → log2 vehicle/camptothecin viability: 0.219; viability with camptothecin: 68.5
MS4A2 #3 → log2 vehicle/camptothecin viability: 0.0786; viability with camptothecin: 70.3
MS4A2 #4 → log2 vehicle/camptothecin viability: -0.387; viability with camptothecin: 94.4
SIVA1 #1 → log2 vehicle/camptothecin viability: 0.0422; viability with camptothecin: 72.5
SIVA1 #2 → log2 vehicle/camptothecin viability: 0.468; viability with camptothecin: 68.8
SIVA1 #3 → log2 vehicle/camptothecin viability: -0.718; viability with camptothecin: 43.8
SIVA1 #4 → log2 vehicle/camptothecin viability: 0.385; viability with camptothecin: 42.3
SIVA1 #5 → log2 vehicle/camptothecin viability: -0.527; viability with camptothecin: 76
SIVA1 #6 → log2 vehicle/camptothecin viability: -0.374; viability with camptothecin: 84.6

The list goes on, starting with the last 2 of the part before.
SIVA1 #5 → log2 vehicle/camptothecin viability: -0.527; viability with camptothecin: 76
SIVA1 #6 → log2 vehicle/camptothecin viability: -0.374; viability with camptothecin: 84.6
VAV1 #1 → log2 vehicle/camptothecin viability: -0.192; viability with camptothecin: 87.9
VAV1 #2 → log2 vehicle/camptothecin viability: -0.134; viability with camptothecin: 114
VAV1 #3 → log2 vehicle/camptothecin viability: -0.047; viability with camptothecin: 70.3
VAV1 #4 → log2 vehicle/camptothecin viability: 0.157; viability with camptothecin: 71.5
FFAR1 #1 → log2 vehicle/camptothecin viability: 0.688; viability with camptothecin: 40.3
FFAR1 #2 → log2 vehicle/camptothecin viability: -0.447; viability with camptothecin: 102
FFAR1 #3 → log2 vehicle/camptothecin viability: -0.146; viability with camptothecin: 31.7
FFAR1 #4 → log2 vehicle/camptothecin viability: 0.0545; viability with camptothecin: 54.5
HMGCR #1 → log2 vehicle/camptothecin viability: 0.257; viability with camptothecin: 100
HMGCR #2 → log2 vehicle/camptothecin viability: 0.213; viability with camptothecin: 49.8
HMGCR #3 → log2 vehicle/camptothecin viability: -0.102; viability with camptothecin: 78.5
HMGCR #4 → log2 vehicle/camptothecin viability: 0.0319; viability with camptothecin: 80.3
NUDT4 #1 → log2 vehicle/camptothecin viability: 0.299; viability with camptothecin: 86.3
NUDT4 #2 → log2 vehicle/camptothecin viability: -0.0477; viability with camptothecin: 76.7
NUDT4 #3 → log2 vehicle/camptothecin viability: 0.106; viability with camptothecin: 84.3
NUDT4 #4 → log2 vehicle/camptothecin viability: 0.464; viability with camptothecin: 46.2
ADAM30 #1 → log2 vehicle/camptothecin viability: -0.432; viability with camptothecin: 81.9
ADAM30 #2 → log2 vehicle/camptothecin viability: 0.0138; viability with camptothecin: 92
ADAM30 #3 → log2 vehicle/camptothecin viability: -0.229; viability with camptothecin: 117
ADAM30 #4 → log2 vehicle/camptothecin viability: 0.517; viability with camptothecin: 65
PRKAA1 #1 → log2 vehicle/camptothecin viability: 0.89; viability with camptothecin: 45.9
PRKAA1 #2 → log2 vehicle/camptothecin viability: 0.15; viability with camptothecin: 73.6
PRKAA1 #3 → log2 vehicle/camptothecin viability: 0.1; viability with camptothecin: 70.3
PRKAA1 #4 → log2 vehicle/camptothecin viability: -0.581; viability with camptothecin: 73.1
USP21 #1 → log2 vehicle/camptothecin viability: 0.0481; viability with camptothecin: 112
USP21 #2 → log2 vehicle/camptothecin viability: -0.0641; viability with camptothecin: 88.8
USP21 #3 → log2 vehicle/camptothecin viability: -0.244; viability with camptothecin: 49.4
USP21 #4 → log2 vehicle/camptothecin viability: 0.0389; viability with camptothecin: 90.4
